Measured values as given in paper PMC9358865.
No constants are given. Whether binding was seen depends on the method and setting. In cells and extracts the contact can be indirect. For part of these data: Binding calls can cover weak binding; strength is not graded here.

Amino acid sequences for entries named in this document (tags omitted). A change or cut given only in a name is not applied to a line headed by its entry.
UniProt P11766: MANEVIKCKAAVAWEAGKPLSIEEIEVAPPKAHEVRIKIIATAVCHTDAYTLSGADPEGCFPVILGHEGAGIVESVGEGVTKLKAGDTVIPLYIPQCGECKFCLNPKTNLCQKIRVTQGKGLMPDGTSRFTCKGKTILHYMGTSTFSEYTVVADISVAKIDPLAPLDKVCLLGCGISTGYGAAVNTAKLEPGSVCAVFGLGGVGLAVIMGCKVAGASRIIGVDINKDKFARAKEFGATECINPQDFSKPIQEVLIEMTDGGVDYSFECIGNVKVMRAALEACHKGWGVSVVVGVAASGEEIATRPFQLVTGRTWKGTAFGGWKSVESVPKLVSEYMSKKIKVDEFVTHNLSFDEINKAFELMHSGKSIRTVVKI
UniProt O43915: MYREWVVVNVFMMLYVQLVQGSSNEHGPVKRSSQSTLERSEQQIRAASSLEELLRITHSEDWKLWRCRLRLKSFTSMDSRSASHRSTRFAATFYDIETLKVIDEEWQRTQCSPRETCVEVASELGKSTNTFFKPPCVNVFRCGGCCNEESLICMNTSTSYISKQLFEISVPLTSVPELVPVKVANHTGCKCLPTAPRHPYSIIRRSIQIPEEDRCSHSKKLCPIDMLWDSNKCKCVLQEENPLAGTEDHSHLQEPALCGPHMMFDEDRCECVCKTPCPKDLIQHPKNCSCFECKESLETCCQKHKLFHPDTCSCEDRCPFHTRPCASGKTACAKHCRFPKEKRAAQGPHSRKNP

Tests used:
[1] = target: S-nitrosoglutathione reductase (GSNOR) (UniProt P11766); assay: co-IP; NCI-H1975 cells at 24 h post-transfection with HA-VEGFD(WT) or HA-VEGFD(C277S); RIPA lysates, supernatants incubated with antibody and protein A/G PLUS-Agarose overnight at 4 °C; precipitating antibody not told
[2] = target: T1, Thioredoxin (Trx-1) (UniProt P10599); assay: as above
T1 sequence: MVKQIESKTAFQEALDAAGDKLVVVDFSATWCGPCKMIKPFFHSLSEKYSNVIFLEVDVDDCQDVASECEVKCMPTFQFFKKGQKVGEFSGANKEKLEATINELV

Question: How did the binding [1] turn out when “HA-VEGFD(C277S) (from UniProt O43915) (ligand)” was run?
Answer: The binding was “binds”.

Question: With “HA-VEGFD(WT), vascular endothelial growth factor D (from UniProt O43915) (ligand)” as the substance, how does the binding [2] read?
Answer: The binding was “no binding”.

Question: What about the binding [1] of the same substance?
Answer: The binding was “binds”.
